Measured values published in the supplement of paper PMC9135407.
Where “and” joins values, the source holds several entries; their conditions need not be identical. Identical values can stand only once. Counter-ions that a name gives are not always drawn. ± gives the standard deviation of the averaged measurements. The list shows a part of the results. Part of the spread comes from offsets between plates or batches.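 Primary human stellate myofibroblasts activated in culture; inactivation shown by regained lipid droplets. Readout: fraction of Hoechst-counted cells exceeding a per-plate Bodipy threshold, duplicate wells, each plate with DMSO negative and nortriptyline positive controls. Hits: control-normalized score beyond the plate's top-tenth-percentile nortriptyline wells, or among its three best wells. Final well concentrations unstated.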

Tested on: primary human hepatic stellate cells (donor 1)
Test: percent Bodipy-positive cells; higher = more lipid droplet accumulation
Conditions: 48 h
[1] = library stock concentration: 3.33 mM
[2] = library stock concentration: 10 mM
[3] = library stock concentration: 1 mM
[4] = library stock concentration: 400 uM
[5] = library stock concentration: 2 mM
[6] = library stock concentration: 80 uM

NC(=O)c1cccnc1 [Nicotinamide (Vitamin B3)]
percent Bodipy-positive cells [1]: 7.66 ± 5.5% | percent Bodipy-positive cells [2]: 12.7 ± 3.7%

NC(=O)c1cccnc1 [Niacinamide]
percent Bodipy-positive cells (library stock concentration: 16.4 mM): 22.9 ± 7.9%

NC(=O)c1cccnc1
percent Bodipy-positive cells [2]: 7.72 ± 1.3%

Nc1nccs1 [Aminothiazole]
percent Bodipy-positive cells [1]: 12.6 ± 5.8% | percent Bodipy-positive cells [2]: 20.2% and 29.8%

O=C(O)C=CC(=O)O.OCCOCCN1CCN(C2=Nc3ccccc3Sc3ccccc32)CC1.OCCOCCN1CCN(C2=Nc3ccccc3Sc3ccccc32)CC1 [Quetiapine Fumarate]
percent Bodipy-positive cells [2]: 72.9 ± 2.6%

O=C(O)CCc1nc2ccccc2[nH]1
percent Bodipy-positive cells [2]: 17.9 ± 2%

C[C@@H]1CC2C3C[C@H](F)C4=CC(=O)C=C[C@]4(C)[C@@]3(F)[C@@H](O)C[C@]2(C)[C@@]1(O)C(=O)COC(=O)C(C)(C)C (stereo not given in full) [Flumethazone pivalate]
percent Bodipy-positive cells (library stock concentration: 4 mM): 1.42 ± 0.86% | percent Bodipy-positive cells [2]: 5.24 ± 0.52%

CC(=C(CCO)SSCC1CCCO1)N(C=O)Cc1cnc(C)nc1N (stereo in doubt) [Fursultiamine Hydrochloride]
percent Bodipy-positive cells: 8.43 ± 1.9%

CCC(C)(CN(C)C)OC(=O)c1ccccc1 (stereo not given) [Amyleine hydrochloride]
percent Bodipy-positive cells: 22.4 ± 2%

CC(C)C[C@@H](/C=C/S(C)(=O)=O)NC(=O)[C@H](CC(C)C)NC(=O)[C@H](CC(C)C)NC(=O)OCc1ccccc1
percent Bodipy-positive cells (library stock concentration: 9.1 mM): 93.1 ± 5.1%

C=C(NC(=O)C(=C)NC(=O)c1csc(C2=N[C@@H]3c4csc(n4)[C@H]4NC(=O)c5csc(n5)[C@H]([C@](C)(O)[C@@H](C)O)NC(=O)[C@H]5CSC(=N5)/C(=C/C)NC(=O)[C@H]([C@@H](C)O)NC(=O)c5csc(n5)[C@]3(CC2)NC(=O)[C@H](C)NC(=O)C(=C)NC(=O)[C@H](C)NC(=O)[C@H]([C@@H](C)CC)N[C@@H]2C=Cc3c([C@H](C)O)cc(nc3[C@H]2O)C(=O)O[C@@H]4C)n1)C(N)=O [Thiostrepton]
percent Bodipy-positive cells: 97.1 ± 2.2%

O=C(/C=C/c1ccc(/C=C/C(=O)Nc2ccc(C3=NCCN3)cc2)cc1)Nc1ccc(C2=NCCN2)cc1 [GW 4869 (hydrochloride hydrate)]
percent Bodipy-positive cells [3]: 31 ± 7.1%

CC(C)N(CCCNC(=O)Nc1ccc(C(C)(C)C)cc1)C[C@H]1O[C@@H](n2cc(Br)c3c(N)ncnc32)[C@H](O)[C@@H]1O
percent Bodipy-positive cells [2]: 99.42 ± 0.17%

CC(C)(O)c1cc2nc(-c3cnc(N)nc3)nc(N3CCOCC3)c2s1
percent Bodipy-positive cells [4]: 12.7 ± 1.8% | percent Bodipy-positive cells [5]: 9.319 ± 0.038% | percent Bodipy-positive cells [2]: 12.1 ± 0.72%

CNC1(C)C2CCC(C2)C1(C)C (stereo not given) [Mecamylamine hydrochloride]
percent Bodipy-positive cells: 14.8 ± 3.4% | percent Bodipy-positive cells [2]: 64.8 ± 3.5%

CNC1(C)C2CCC(C2)C1(C)C (stereo not given) [Mecamylamine HCl]
percent Bodipy-positive cells (library stock concentration: 12 mM): 10.5 ± 7.3%

NC(=O)C1(N2CCCCC2)CCN(CCCC(=O)c2ccc(F)cc2)CC1
percent Bodipy-positive cells [2]: 24.4 ± 4.9%

O=C(NCc1ccc(Oc2ccccc2)cc1)c1nc(-c2cc(Br)c(O)c(Br)c2)no1
percent Bodipy-positive cells [1]: 22.5 ± 1.2% | percent Bodipy-positive cells [2]: 36.6 ± 9.2%

CCCCCCCCCCCCCCCC[N+](C)(C)C [Cetrimonium Bromide (CTAB)]
percent Bodipy-positive cells [1]: 28.2 ± 8.4% | percent Bodipy-positive cells [2]: 99.44 ± 0.79%

CCCCCCCCCCCCCCCC[N+](C)(C)C [Cetrimonium bromide]
percent Bodipy-positive cells [2]: 99.78 ± 0.31%

Cc1c(Cn2c(C)nc3c(C(=O)O)cc(N4CCOCC4)cc32)cccc1C(F)(F)F
percent Bodipy-positive cells [6]: 4.94 ± 0.15% | percent Bodipy-positive cells [4]: 5.88 ± 0.38% | percent Bodipy-positive cells [5]: 5.31 ± 1.6% | percent Bodipy-positive cells [1]: 25.4 ± 4.5% | percent Bodipy-positive cells [2]: 15.1% and 3.51%

C[C@@]1(O)[C@H](O)[C@@H](CO)O[C@H]1n1cnc2c(NC3CCCC3)nc(Cl)nc21
percent Bodipy-positive cells [2]: 5.42 ± 1%

CC(C)c1onc(-c2c(Cl)cccc2Cl)c1COc1ccc(/C=C/c2cccc(C(=O)O)c2)c(Cl)c1
percent Bodipy-positive cells [1]: 5.96 ± 0.48% | percent Bodipy-positive cells [2]: 6.38% and 5.7%

Nc1nc(Nc2ccc(S(N)(=O)=O)cc2)nn1C(=O)c1c(F)cccc1F
percent Bodipy-positive cells [4]: 18.3 ± 2.6% | percent Bodipy-positive cells [5]: 23.3 ± 4.1% | percent Bodipy-positive cells [1]: 44.5 ± 4.5% | percent Bodipy-positive cells [2]: 61% and 54.5%

CCCCCC=CCC=CCC=CCCCCCCC(=O)OC [Dihomo-.gamma.-Linolenic Acid methyl ester]
percent Bodipy-positive cells [3]: 16.2 ± 5%

CC1CCN=C(N)C1 (stereo not given) [2-Imino-4-methylpiperidine (acetate)]
percent Bodipy-positive cells [3]: 7.54 ± 0.43%

C=CCN1CCCC1CNC(=O)c1cc2nn[nH]c2cc1OC (stereo not given) [Alizapride HCl]
percent Bodipy-positive cells: 40.4 ± 16% | percent Bodipy-positive cells [1]: 13.6 ± 3.9% | percent Bodipy-positive cells [2]: 32.8 ± 10%

Cc1[nH]c(/C=C2\C(=O)Nc3ccc(S(=O)(=O)Cc4c(Cl)cccc4Cl)cc32)c(C)c1C(=O)N1CCC[C@@H]1CN1CCCC1
percent Bodipy-positive cells [1]: 100% | percent Bodipy-positive cells [2]: 100%

COc1ccc(CNCc2cccc3ccccc23)cc1
percent Bodipy-positive cells [1]: 14.7 ± 1.4% | percent Bodipy-positive cells [2]: 70.9 ± 10%

O=C(O)CCC/C=C\C[C@@H]1[C@@H](/C=C/[C@H](O)C2Cc3ccccc3C2)[C@@H](F)C[C@@H]1O
percent Bodipy-positive cells [2]: 49.3 ± 14%

NC(=O)[C@@H](CCC(F)(F)F)N(Cc1ccc(-c2ncon2)cc1F)S(=O)(=O)c1ccc(Cl)cc1
percent Bodipy-positive cells [1]: 9.14 ± 3.1% | percent Bodipy-positive cells [2]: 25.56 ± 0.16%

CC1=C(C(=O)O)N2C(=O)[C@@H](NC(=O)[C@H](N)c3ccc(O)cc3)[C@H]2SC1 [Cefadroxil]
percent Bodipy-positive cells: 26.2 ± 10% | percent Bodipy-positive cells [2]: 13.3 ± 1%

N#CC(=C(/N)Sc1ccccc1N)/C(C#N)=C(\N)Sc1ccccc1N
percent Bodipy-positive cells [1]: 9.2 ± 1.7% | percent Bodipy-positive cells [2]: 18.1 ± 0.38%

c1ccc2c(-c3cnn4cc(-c5ccc(N6CCNCC6)cc5)cnc34)ccnc2c1
percent Bodipy-positive cells [6]: 22.1 ± 0.37% | percent Bodipy-positive cells [4]: 67.4 ± 45% | percent Bodipy-positive cells [5]: 94.1 ± 2.5% | percent Bodipy-positive cells [2]: 73.7 ± 6.7%
